Results: patent US6620834B1, “Medicinal compositions for treating colorectal cancer” (Hisamitsu Pharmaceutical Co., Inc., priority 1999, dated 2003)
At least one structure is not confirmed: it was looked up by name or label, or the drawing left a doubt.

Tested on: Yoshida's sarcoma
Experiment: liver metastasis inhibitory effect in Yoshida's sarcoma rat model bearing a colorectal cancer
Type: in vivo
Conditions: Donryu rats, Yoshida's sarcoma injected to sigmoid subserous; intra-colon administration for 5 days, autopsy day 6; versus control group
Protocol: The solution was prepared in which pravastatin and aspirin were mixed in the mixing ratio below, and the pharmacological evaluation was carried out in the liver metastasis model of rat colorectal cancer.
The liver metastasis inhibitory effect was evaluated in the following procedure by use of the mix solution prepared in the example 1.
Donryu strain rats (8 weeks old) were used. Under a sodium pentobarbital anesthesia a catheter was inserted from the ileocecum into the colon, and the plug was put out from the back part and fixed. At the same time Yoshida's sarcoma (1.5×10^6cells/30 μl/rat) was injected to the sigmoid subserous.
The mix solution prepared in the example 1 was administered intra-colon or orally for 5 days from the next day after the surgery, and at day 6 a pathologic autopsy was made.
When the test on day 6 was finished, rats were killed by bleeding for a pathologic autopsy. The liver was isolated from each individual, fixed by a neutral buffered formalin solution, and a tissue section was then prepared to obtain histopathological findings. The metastasis inhibitory ratio was calculated comparing with the engraftment ratio of the cancer cells in the control group.

## CC[C@H](C)C(=O)O[C@H]1C[C@H](O)C=C2C=C[C@H](C)[C@H](CC[C@@H](O)C[C@@H](O)CC(=O)O)[C@H]21 [pravastatin, Pravastatin]
  liver metastasis inhibitory effect: hardly observed
